Test results: the supplement of paper PMC10849652
Some of the results follow. Residues, ends and D or L forms follow the SMILES beside them. *: point of attachment. Cbz = O=C(OCc1ccccc1)*

Amino acid sequences for entries named in this document (tags omitted). A change or cut given only in a name is not applied to a line headed by its entry.
UniProt O75131: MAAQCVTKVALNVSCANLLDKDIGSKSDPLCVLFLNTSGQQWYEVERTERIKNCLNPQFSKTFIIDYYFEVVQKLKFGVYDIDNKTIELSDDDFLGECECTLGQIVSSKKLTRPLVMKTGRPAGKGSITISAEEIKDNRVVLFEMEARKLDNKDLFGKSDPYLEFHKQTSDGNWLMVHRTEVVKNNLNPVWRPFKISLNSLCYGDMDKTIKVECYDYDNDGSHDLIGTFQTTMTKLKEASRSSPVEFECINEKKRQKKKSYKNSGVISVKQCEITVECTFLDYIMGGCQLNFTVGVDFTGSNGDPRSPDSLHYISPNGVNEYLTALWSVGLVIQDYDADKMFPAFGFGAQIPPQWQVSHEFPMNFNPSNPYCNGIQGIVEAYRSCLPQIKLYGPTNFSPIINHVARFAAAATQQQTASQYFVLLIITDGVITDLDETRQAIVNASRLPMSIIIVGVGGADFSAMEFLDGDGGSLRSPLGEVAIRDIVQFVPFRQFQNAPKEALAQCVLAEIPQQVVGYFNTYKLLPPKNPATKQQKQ
UniProt Q9H9Q2: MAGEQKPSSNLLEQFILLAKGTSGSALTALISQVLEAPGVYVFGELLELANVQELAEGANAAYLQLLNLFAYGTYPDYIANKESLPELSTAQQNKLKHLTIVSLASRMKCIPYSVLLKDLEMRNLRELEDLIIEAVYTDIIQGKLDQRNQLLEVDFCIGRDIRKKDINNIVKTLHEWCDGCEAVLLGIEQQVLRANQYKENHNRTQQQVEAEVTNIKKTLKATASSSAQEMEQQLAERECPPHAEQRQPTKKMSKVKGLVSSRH
UniProt P36551: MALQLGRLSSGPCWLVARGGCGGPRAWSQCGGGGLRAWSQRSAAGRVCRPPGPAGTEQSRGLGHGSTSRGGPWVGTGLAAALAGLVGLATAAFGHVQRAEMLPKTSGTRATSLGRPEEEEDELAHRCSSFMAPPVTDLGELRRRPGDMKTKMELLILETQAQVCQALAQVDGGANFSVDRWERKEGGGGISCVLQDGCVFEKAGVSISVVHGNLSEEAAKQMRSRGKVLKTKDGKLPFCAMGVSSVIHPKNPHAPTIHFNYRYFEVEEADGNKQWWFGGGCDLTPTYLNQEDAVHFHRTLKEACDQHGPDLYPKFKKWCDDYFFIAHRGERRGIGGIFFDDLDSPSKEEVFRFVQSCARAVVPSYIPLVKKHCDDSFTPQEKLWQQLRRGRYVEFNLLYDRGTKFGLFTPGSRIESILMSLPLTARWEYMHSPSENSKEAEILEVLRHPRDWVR
UniProt Q92793, whole entry, looked up: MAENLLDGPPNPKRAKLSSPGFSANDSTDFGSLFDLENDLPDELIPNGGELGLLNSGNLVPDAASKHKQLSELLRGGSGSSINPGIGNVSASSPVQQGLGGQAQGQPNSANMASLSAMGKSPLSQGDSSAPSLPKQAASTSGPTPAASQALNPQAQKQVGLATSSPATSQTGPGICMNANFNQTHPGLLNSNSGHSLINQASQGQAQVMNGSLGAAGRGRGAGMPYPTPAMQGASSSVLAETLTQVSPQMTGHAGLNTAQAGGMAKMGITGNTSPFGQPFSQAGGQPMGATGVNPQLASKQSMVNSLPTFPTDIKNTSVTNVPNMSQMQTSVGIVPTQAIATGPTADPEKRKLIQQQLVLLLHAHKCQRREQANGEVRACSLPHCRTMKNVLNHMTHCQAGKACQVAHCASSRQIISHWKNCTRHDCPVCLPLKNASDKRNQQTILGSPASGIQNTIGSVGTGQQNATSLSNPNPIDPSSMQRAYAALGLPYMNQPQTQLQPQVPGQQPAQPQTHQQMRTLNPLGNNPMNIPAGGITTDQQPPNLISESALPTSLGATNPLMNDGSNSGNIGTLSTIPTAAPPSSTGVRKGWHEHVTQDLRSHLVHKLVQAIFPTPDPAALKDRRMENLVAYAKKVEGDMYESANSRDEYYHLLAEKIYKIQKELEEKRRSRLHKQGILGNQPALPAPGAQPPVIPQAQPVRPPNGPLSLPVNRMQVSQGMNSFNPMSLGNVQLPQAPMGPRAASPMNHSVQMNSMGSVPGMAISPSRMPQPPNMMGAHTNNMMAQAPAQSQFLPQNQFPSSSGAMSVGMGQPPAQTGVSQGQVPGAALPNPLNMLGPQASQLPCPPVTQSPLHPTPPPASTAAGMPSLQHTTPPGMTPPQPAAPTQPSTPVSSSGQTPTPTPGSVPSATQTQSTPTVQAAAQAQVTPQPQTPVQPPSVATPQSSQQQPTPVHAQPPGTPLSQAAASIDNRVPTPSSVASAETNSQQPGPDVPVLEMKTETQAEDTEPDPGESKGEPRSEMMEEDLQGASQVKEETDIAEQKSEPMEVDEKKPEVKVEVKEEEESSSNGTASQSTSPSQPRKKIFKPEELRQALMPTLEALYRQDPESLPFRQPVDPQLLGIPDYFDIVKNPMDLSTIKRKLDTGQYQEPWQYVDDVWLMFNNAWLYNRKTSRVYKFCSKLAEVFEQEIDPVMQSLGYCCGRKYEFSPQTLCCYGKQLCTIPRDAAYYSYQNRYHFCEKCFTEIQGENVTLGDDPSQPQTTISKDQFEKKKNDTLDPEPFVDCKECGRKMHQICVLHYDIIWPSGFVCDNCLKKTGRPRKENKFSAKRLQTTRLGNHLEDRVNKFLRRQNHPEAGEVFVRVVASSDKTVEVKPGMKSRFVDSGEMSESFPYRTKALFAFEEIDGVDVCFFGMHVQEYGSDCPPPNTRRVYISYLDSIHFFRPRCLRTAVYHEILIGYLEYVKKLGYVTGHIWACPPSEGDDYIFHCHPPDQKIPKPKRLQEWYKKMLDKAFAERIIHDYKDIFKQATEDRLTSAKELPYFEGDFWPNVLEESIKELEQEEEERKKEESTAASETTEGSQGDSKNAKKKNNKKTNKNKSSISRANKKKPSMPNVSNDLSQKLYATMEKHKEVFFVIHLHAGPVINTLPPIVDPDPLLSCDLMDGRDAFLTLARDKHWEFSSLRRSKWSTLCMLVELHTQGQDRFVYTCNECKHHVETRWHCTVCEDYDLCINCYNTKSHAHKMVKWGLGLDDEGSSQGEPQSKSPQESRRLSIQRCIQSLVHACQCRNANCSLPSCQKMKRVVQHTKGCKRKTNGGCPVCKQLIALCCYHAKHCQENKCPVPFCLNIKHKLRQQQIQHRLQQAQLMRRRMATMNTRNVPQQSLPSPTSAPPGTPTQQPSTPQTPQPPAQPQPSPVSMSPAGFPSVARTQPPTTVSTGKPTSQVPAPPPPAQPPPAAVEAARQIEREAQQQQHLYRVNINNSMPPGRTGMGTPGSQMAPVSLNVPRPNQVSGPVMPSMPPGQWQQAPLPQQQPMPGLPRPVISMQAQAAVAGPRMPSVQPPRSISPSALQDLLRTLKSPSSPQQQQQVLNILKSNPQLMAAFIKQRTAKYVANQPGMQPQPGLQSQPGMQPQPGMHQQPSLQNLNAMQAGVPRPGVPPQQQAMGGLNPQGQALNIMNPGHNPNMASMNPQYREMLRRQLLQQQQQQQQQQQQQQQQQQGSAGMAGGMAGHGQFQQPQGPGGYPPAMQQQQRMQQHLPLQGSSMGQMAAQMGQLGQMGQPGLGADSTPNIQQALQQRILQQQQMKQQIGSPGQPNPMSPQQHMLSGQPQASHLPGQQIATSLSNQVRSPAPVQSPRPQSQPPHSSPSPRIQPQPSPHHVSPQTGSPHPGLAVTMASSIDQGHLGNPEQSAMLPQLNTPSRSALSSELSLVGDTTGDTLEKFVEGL
UniProt P61923: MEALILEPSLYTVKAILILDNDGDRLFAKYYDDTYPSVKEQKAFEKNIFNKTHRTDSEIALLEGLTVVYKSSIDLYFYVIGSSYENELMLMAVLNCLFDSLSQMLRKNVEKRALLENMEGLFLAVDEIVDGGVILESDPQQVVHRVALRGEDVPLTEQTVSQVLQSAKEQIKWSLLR
UniProt O14810: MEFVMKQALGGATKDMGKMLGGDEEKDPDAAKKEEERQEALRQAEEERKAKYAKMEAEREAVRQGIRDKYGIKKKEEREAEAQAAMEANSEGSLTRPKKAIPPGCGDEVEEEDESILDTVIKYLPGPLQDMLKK
UniProt Q9UBF2: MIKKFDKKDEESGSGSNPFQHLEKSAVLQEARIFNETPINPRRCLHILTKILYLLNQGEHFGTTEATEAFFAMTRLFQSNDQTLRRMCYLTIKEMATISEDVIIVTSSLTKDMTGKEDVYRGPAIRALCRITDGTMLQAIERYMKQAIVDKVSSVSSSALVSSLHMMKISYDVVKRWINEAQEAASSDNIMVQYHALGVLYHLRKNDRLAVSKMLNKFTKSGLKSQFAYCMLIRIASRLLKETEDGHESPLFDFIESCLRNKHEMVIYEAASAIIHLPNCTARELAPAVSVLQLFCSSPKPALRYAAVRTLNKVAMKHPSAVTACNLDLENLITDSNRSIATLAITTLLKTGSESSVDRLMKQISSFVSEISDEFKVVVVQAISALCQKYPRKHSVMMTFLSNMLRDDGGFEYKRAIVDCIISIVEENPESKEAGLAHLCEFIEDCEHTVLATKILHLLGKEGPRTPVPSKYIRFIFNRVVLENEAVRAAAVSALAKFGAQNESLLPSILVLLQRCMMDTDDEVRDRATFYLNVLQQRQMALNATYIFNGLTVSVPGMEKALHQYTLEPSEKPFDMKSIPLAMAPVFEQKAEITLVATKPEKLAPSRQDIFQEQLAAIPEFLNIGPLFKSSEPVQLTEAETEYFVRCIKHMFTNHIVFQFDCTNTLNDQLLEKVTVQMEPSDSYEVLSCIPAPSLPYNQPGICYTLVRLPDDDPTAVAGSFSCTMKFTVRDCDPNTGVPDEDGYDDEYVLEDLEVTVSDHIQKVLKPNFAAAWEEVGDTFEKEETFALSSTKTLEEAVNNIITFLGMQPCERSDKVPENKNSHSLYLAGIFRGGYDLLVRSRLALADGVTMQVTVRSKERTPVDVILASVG
UniProt Q9BRF8, whole entry, looked up: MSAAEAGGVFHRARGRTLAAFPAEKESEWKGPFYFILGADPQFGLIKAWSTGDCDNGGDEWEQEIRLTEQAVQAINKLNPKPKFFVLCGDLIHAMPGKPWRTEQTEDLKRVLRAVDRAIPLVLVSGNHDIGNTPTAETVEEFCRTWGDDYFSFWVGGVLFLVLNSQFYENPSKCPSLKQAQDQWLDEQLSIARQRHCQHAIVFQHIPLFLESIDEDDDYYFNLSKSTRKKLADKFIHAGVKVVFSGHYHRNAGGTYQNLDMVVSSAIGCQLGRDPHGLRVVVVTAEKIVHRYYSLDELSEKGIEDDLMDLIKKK
UniProt Q96FN4: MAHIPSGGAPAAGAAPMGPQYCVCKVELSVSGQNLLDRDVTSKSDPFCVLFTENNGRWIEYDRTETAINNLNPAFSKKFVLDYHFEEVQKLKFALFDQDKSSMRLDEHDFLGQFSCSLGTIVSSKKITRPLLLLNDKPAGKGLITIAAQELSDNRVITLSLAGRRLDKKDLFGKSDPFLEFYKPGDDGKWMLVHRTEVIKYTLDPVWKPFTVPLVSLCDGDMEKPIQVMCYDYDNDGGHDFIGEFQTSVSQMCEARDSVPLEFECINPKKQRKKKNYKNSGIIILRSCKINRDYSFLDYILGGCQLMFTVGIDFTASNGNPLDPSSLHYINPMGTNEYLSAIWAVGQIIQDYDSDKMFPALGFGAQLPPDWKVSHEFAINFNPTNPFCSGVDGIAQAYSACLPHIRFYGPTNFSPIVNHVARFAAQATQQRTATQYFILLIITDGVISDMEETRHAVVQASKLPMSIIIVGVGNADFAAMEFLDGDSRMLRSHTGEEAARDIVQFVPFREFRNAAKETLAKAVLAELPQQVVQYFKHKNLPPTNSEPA
UniProt Q9Y2Z9: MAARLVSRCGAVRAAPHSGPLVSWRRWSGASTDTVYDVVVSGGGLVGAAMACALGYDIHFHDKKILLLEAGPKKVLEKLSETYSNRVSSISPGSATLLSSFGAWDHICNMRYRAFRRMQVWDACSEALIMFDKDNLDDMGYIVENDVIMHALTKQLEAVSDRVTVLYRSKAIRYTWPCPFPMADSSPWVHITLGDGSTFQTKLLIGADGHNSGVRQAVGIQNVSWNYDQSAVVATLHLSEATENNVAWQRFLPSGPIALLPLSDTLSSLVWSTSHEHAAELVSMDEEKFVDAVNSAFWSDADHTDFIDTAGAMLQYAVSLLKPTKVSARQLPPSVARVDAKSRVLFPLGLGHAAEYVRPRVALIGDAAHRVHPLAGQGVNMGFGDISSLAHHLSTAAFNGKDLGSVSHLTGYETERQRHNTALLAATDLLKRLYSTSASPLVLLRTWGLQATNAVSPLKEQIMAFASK
UniProt Q9NX08, whole entry, looked up: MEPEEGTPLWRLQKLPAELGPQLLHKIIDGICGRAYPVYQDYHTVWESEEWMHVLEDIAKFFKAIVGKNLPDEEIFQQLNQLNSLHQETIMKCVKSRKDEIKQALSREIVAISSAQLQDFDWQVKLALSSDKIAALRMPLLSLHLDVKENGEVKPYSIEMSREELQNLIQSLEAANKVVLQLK
UniProt P14406, whole entry, looked up: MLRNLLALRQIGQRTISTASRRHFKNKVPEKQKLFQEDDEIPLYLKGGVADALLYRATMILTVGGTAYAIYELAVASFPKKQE

What was measured:
Test in all cases: log2 fold change, soluble protein after heating vs DMSO (PISA); higher = thermal stabilisation; K562 cells, 10 uM, 30 min; active = over 0.2 and 3.5 SD of the protein, either way, in both replicates (recomputed)
[1] = compound: C1COCCN1CCN2C3=CC=CC=C3N=C2NC(=O)C4=CC(=CC=C4)[N+](=O)[O-] [IRAK-1-4 Inhibitor I]
How it was run: (§1)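 K562 cells at 2×10^6 cells/mL were given 10 μM compound for 30 min. Aliquots then went through 3 min of heating across 48°C-58°C, were pooled, and were extracted in PBS with 0.5% NP-40 at 4°C, and the supernatant after 21,000xg for 90 min was quantified by TMTpro 16plex LC-MS/MS with channel sums equalised. Thermal stability relative to control samples, from duplicates, is given as log2 fold change.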

[2] = compound: C=CC(=O)N1CCC[C@@H](n2nc(-c3ccc(Oc4ccccc4)cc3)c3c(N)ncnc32)C1 [ibrutinib]
How it was run: as §1

[3] = compound: CC(=O)c1cnc2ccc(-c3cc(Cl)c(O)c(Cl)c3)nc2c1N[C@H]1CC[C@H](CN(C)C)CC1
How it was run: as §1

[4] = compound: CC(C)(C)Cn1c(N)nc2ccc(-c3[nH]c(C(C)(C)C)nc3-c3ccc(F)cc3)nc21 [ralimetinib]
How it was run: as §1

[5] = compound: CC(C)(O)CC(=O)NCCn1ccc2ncnc(Nc3ccc(Oc4cccc(C(F)(F)F)c4)c(Cl)c3)c21
How it was run: as §1

[6] = compound: CC(C)C1=C2N=C(C=C(N2N=C1)NCC3=CC=CC=C3)NCCCCCCN
How it was run: as §1

[7] = compound: CC(C)C[C@@H](C=O)NC(=O)[C@H](CC(C)C)NC(=O)[C@H](CC(C)C)NC(=O)OCc1ccccc1
How it was run: as §1

[8] = compound: CC(C)N(C[C@H]1O[C@@H](n2cnc3c(N)ncnc32)[C@H](O)[C@@H]1O)[C@H]1C[C@@H](CCc2nc3cc(C(C)(C)C)ccc3[nH]2)C1 [pinometostat]
How it was run: as §1

[9] = compound: CC1=C(C(CC(=O)N1)C2=CC=C(C=C2)C(F)(F)F)C(=O)NC3=C(C=C4C(=C3)C=NN4)F
How it was run: as §1

[10] = compound: CC1=C(C2=C(C=C1)C(=O)C3=CC=CC=C3N2CCCN)C
How it was run: as §1

Measured: log2 fold change

CROCC (UniProt Q5TZA2)
inactive: [1] 0.008 | [2] -0.021 | [3] -0.089 | [4] -0.037 | [5] 0.048 | [6] -0.053 | [7] 0.035 | [8] -0.107 | [9] -0.032 | [10] 0.005

CRELD2 isoform 5 (UniProt Q6UXH1)
inactive: [1] 0.029 | [2] 0.026 | [3] 0.024 | [4] -0.043 | [5] 0.097 | [6] 0.099 | [7] -0.007 | [8] -0.009 | [9] 0.087 | [10] -0.054

CPNE3 (UniProt O75131)
inactive: [1] 0.037 | [2] 0.009 | [3] 0.023 | [4] 0.004 | [5] 0.004 | [6] 0.075 | [7] -0.039 | [8] -0.051 | [9] 0.006 | [10] -0.048

COPS7B (UniProt Q9H9Q2)
inactive: [1] 0.006 | [2] -0.002 | [3] 0.048 | [4] -0.018 | [5] -0.063 | [6] 0.033 | [7] -0.002 | [8] -0.073 | [9] 0.004 | [10] -0.1

CPOX (UniProt P36551)
inactive: [1] 0.01 | [2] -0.001 | [3] 0.083 | [4] -0.012 | [5] 0 | [6] 0.024 | [7] -0.044 | [8] -0.105 | [9] -0.007 | [10] 0.011

CRBN (UniProt Q96SW2)
inactive: [1] 0.043 | [2] -0.003 | [3] -0.05 | [4] -0.036 | [5] -0.001 | [6] 0.05 | [7] 0.031 | [8] 0.02 | [9] 0.053 | [10] -0.006

COMMD5 (UniProt Q9GZQ3)
inactive: [1] -0.019 | [2] -0.088 | [3] 0.009 | [4] -0.02 | [5] -0.097 | [6] -0.066 | [7] -0.013 | [8] -0.118 | [9] 0.041 | [10] 0.1

CRPPA (UniProt A4D126)
inactive: [1] 0.019 | [2] 0.027 | [3] -0.008 | [4] -0.076 | [5] -0.013 | [6] 0.079 | [7] -0.043 | [8] -0.009 | [9] 0.012 | [10] -0.002

Taken from the results shown (two entries):
COMMD5 (UniProt Q9GZQ3)
inactive: [1] -0.019 | [2] -0.088 | [3] 0.009 | [4] -0.02 | [5] -0.097 | [6] -0.066 | [7] -0.013 | [8] -0.118 | [9] 0.041 | [10] 0.1

CRPPA (UniProt A4D126)
inactive: [1] 0.019 | [2] 0.027 | [3] -0.008 | [4] -0.076 | [5] -0.013 | [6] 0.079 | [7] -0.043 | [8] -0.009 | [9] 0.012 | [10] -0.002

The list continues:

CREBBP (UniProt Q92793)
inactive: [1] -0.007 | [2] -0.011 | [3] -0.064 | [4] -0.022 | [5] -0.026 | [6] 0.031 | [7] 0.023 | [8] 0.001 | [9] -0.013 | [10] 0.043

COPZ1 isoform 4 (UniProt P61923)
inactive: [1] 0.049 | [2] -0.016 | [3] -0.06 | [4] -0.029 | [5] -0.002 | [6] -0.002 | [7] -0.025 | [8] -0.001 | [9] 0.038 | [10] 0.156

CREG1 (UniProt O75629)
inactive: [1] 0.051 | [2] 0.028 | [3] -0.001 | [4] -0.001 | [5] 0.034 | [6] -0.019 | [7] 0.032 | [8] 0.002 | [9] -0.017 | [10] 0.096

CPLX1 (UniProt O14810)
inactive: [1] 0.041 | [2] 0.159 | [3] 0.132 | [4] 0.041 | [5] 0.091 | [6] 0.002 | [7] 0.017 | [8] -0.069

COPG2 (UniProt Q9UBF2)
inactive: [1] -0.002 | [2] -0.015 | [3] -0.015 | [4] -0.001 | [5] 0 | [6] 0.088 | [7] -0.023 | [8] -0.008 | [9] -0.022 | [10] 0.035

COPG1 (UniProt Q9Y678)
inactive: [1] 0 | [2] -0.017 | [3] 0.022 | [4] 0.003 | [5] -0.035 | [6] 0.072 | [7] -0.01 | [8] -0.014 | [9] 0.008 | [10] 0.019

CPPED1 (UniProt Q9BRF8)
inactive: [1] -0.003 | [2] -0.068 | [3] -0.006 | [4] -0.02 | [5] -0.046 | [6] 0.044 | [7] -0.053 | [8] -0.069 | [9] 0.015 | [10] -0.052

CPNE2 (UniProt Q96FN4)
inactive: [1] 0.057 | [2] -0.029 | [3] 0.187 | [4] -0.031 | [5] -0.095 | [6] -0.127 | [7] 0.009 | [8] 0.08 | [9] 0.016 | [10] 0.076

COQ6 (UniProt Q9Y2Z9)
inactive: [1] 0 | [2] 0.089 | [3] 0.013 | [4] 0.111 | [5] 0.001 | [6] -0.057 | [7] -0.089 | [8] -0.045 | [9] -0.033 | [10] 0.047

COMMD8 (UniProt Q9NX08)
inactive: [1] -0.033 | [2] 0.063 | [3] -0.063 | [4] 0.103 | [5] -0.149 | [6] -0.16 | [7] 0.023 | [8] -0.054 | [9] 0.029 | [10] 0.293

COX7A2 (UniProt P14406)
inactive: [1] 0.018 | [2] 0.034 | [3] -0.031 | [4] -0.094 | [5] -0.015 | [6] -0.047 | [7] -0.02 | [8] 0.057 | [9] -0.011 | [10] 0.095

COQ8A (UniProt Q8NI60)
inactive: [1] 0.091 | [2] 0.096 | [3] 0.116 | [4] -0.019 | [5] -0.018 | [6] -0.016 | [7] -0.009 | [8] 0.021 | [9] -0.002 | [10] 0.022

COMTD1 (UniProt Q86VU5)
inactive: [1] -0.02 | [2] -0.03 | [3] 0.001 | [4] -0.033 | [5] -0.155 | [6] 0.067 | [7] -0.01 | [8] -0.072 | [9] 0 | [10] 0.122

COPS2 (UniProt P61201)
inactive: [1] 0.019 | [2] -0.015 | [3] -0.024 | [4] -0.046 | [5] -0.019 | [6] 0.013 | [7] -0.026 | [8] -0.052 | [9] -0.021 | [10] 0.012

COLGALT2 (UniProt Q8IYK4)
inactive: [1] -0.103 | [2] -0.038 | [3] 0.02 | [4] 0.024 | [5] 0.037 | [6] -0.036 | [7] 0.041 | [8] 0.038 | [9] 0.023 | [10] -0.044

COMMD7 (UniProt Q86VX2)
inactive: [1] 0.072 | [2] 0.035 | [3] 0.042 | [4] 0.055 | [5] 0.072 | [6] -0.076 | [7] 0.03 | [8] -0.036 | [9] -0.096 | [10] 0.029

CPS1 isoform 3 (UniProt P31327)
inactive: [1] -0.045 | [2] 0.095 | [3] 0.021 | [4] 0.099 | [5] 0.094 | [6] 0.069 | [7] -0.017 | [8] -0.076 | [9] -0.207 | [10] -0.15

CORO7 isoform 3 (UniProt P57737)
inactive: [1] 0.014 | [2] -0.009 | [3] 0.008 | [4] 0.057 | [5] -0.009 | [6] -0.168 | [7] -0.008 | [8] -0.038 | [9] 0.051 | [10] 0.018

COLGALT1 (UniProt Q8NBJ5)
inactive: [1] -0.068 | [2] -0.081 | [3] 0.039 | [4] 0.069 | [5] -0.024 | [6] -0.021 | [7] 0.023 | [8] 0.093 | [9] 0.028 | [10] 0.023

COMMD10 (UniProt Q9Y6G5)
inactive: [1] 0.031 | [2] 0.07 | [3] 0.003 | [4] 0.008 | [5] 0.082 | [6] -0.039 | [7] 0.009 | [8] -0.02 | [9] -0.03 | [10] 0.054

COPS5 (UniProt Q92905)
inactive: [1] 0.036 | [2] -0.021 | [3] 0.007 | [4] -0.043 | [5] -0.089 | [6] 0.024 | [7] -0.041 | [8] -0.036 | [9] -0.022 | [10] 0.002

CRYZL1 (UniProt O95825)
inactive: [1] 0.057 | [2] 0.01 | [3] 0.033 | [4] -0.028 | [5] 0.001 | [6] 0.042 | [7] 0.021 | [8] -0.046 | [9] 0.007 | [10] -0.002
